# According to PubChem BioAssay AID540256 (National Center for Advancing Translational Sciences (NCATS), 2011):
# The whole screen tested about 300,000 compounds, of which about 3,700 (1.2%) were called active. Inconclusive means that the source gave no clear call. Such entries were picked first, then a sample of the others. Calls follow the shape of the full dose curve; tested in HEK293 cells. Potencies beside an inconclusive call are fits to weak or partial responses and may not hold up.
# Experiment: qHTS for Inhibitors of binding or entry into cells for Lassa Virus; also: nearly all actives have a fitted effect of over 50% in size
# Settings: Lassa virus pseudotype entry inhibition, cell reporter; series mostly up to 37.9 µM
# Potency is read from the fitted curve at half-maximal effect.
row,Compound,Potency
1,Cc1ccc(-c2csc(-c3c[nH]c4ccccc34)n2)c(C)c1,inactive
2,Cc1cccc(-n2cnc(C(=O)NC3CCCCCC3)c2)n1,inactive
3,Cc1cccc(N=Nc2ccc(N(C)C)cc2)c1,"inconclusive: 12.6 µM [inhibitor, partial curve, poor fit]"
4,Cc1ccc(C(=O)NCC(=O)OCc2csc(-c3ccccc3)n2)cc1,inactive
5,Cc1cc(OCC(=O)NCCO)ccc1Cl,inactive
6,COc1ccc(CNC(=O)C2CCN(c3nc4ccc(C)cc4[nH]3)CC2)cc1,inactive
7,Cc1onc(-c2ccccc2)c1C(=O)Nc1nc(-c2ccccc2)cs1,"inconclusive: 15.8 µM [inhibitor, single point]"
8,Cc1ccccc1NC(=O)N1CCCC(c2nc(-c3ccc(C(C)C)cc3)no2)C1 (stereo not given),"inconclusive: 13 µM [inhibitor, single point]"
9,O=C(CN1C(=O)C(=O)N(CCC2=CCCCC2)C1=O)c1c[nH]c2ccccc12,"inconclusive: 0.562 µM [inhibitor, full curve, poor fit]"
10,CC(C)[C@H](NC(=O)NCc1cccs1)C(=O)O,"inconclusive: 3.16 µM [activator, partial curve, poor fit]"
11,Cc1cccn2c(CNCC3OCCc4ccccc43)c(C(=O)N3CCCCC3)nc12 (stereo not given),inactive
12,CC(C)NC(=S)NNC(=O)C12CC3CC(CC(C3)C1)C2,inactive
13,COc1cc2c(cc1NC(=O)CN(C)Cc1nc3ccccc3c(=O)[nH]1)oc1ccccc12,"inconclusive: 29.1 µM [inhibitor, single point]"
14,COc1ccc(S(=O)(=O)c2cn(Cc3ccccc3)c3cc(N4CCCC4)c(F)cc3c2=O)cc1,inactive
15,CCN1C(C(=O)c2ccccc2)=C(OC(=O)C(C)C)c2ccccc2S1(=O)=O,"inconclusive: 22.4 µM [inhibitor, single point]"
16,O=C(Nc1ccc(N2CCN(C(=O)c3cccs3)CC2)cc1)c1ccccc1Cl,"inconclusive: 2.82 µM [inhibitor, single point]"
17,Cc1ccc(S(=O)(=O)C(CNC(=O)C(=O)NCCc2ccccc2)c2ccco2)cc1 (stereo not given),inactive
18,CC1(C)OC(C)(C)/C(=C/Nc2ccc(O)cc2)C1=O,inactive
19,O=C(CSc1nccn1Cc1ccco1)Nc1ccccc1F,"inconclusive: 35.5 µM [activator, single point]"
20,CCC1(C)Cc2ccccc2-c2nc(SC)[nH]c(=O)c21 (stereo not given),"inconclusive: 11.2 µM [inhibitor, partial curve, poor fit]"
21,Cc1nc(CS(=O)(=O)c2ccccn2)sc1C(=O)NNC(=O)c1c(F)cccc1Cl,"inconclusive: 1.26 µM [inhibitor, single point]"
22,Cc1cc(NC(=O)CSc2nc3c(C)cccc3cc2C#N)no1,"inconclusive: 6.31 µM [inhibitor, single point]"
23,Cc1c(NC(=O)CN2C(=O)NC(C)(c3ccccc3Cl)C2=O)c(=O)n(-c2ccccc2)n1C (stereo not given),"inconclusive: 1 µM [inhibitor, partial curve, poor fit]"

row,Compound,Potency
1,CC(=O)c1cccc(Nc2nc(-c3cccc([N+](=O)[O-])c3)cs2)c1,"inconclusive: 1.26 µM [inhibitor, single point]"
2,CC(Oc1ccccc1Cl)C(=O)Nc1ccc(S(=O)(=O)Nc2nccs2)cc1 (stereo not given),"inconclusive: 17.8 µM [inhibitor, partial curve, poor fit]"
3,Cc1ccc(C)c(CN2CCCN(Cc3cc(C)ccc3C)S2(=O)=O)c1,"inconclusive: 8.91 µM [inhibitor, partial curve, poor fit]"
4,COc1cc(NCCCC(C)N)c2ncccc2c1 (stereo not given),"inconclusive: 22.4 µM [inhibitor, single point]"
5,CN(C)CC(O)COC(c1ccc(Cl)cc1)c1ccc(Cl)cc1 (stereo not given),"inconclusive: 12.6 µM [inhibitor, single point]"
6,Cc1cc(C)c(NC(=O)C2CSCCS2)c(C)c1 (stereo not given),inactive
7,COC(=O)[C@H](Cc1ccccc1)NC(=O)NCCc1ccc(F)cc1,"inconclusive: 22.4 µM [inhibitor, single point]"
8,CCCn1c(=O)sc2cc(NC(=O)c3ccccc3OCC)ccc21,inactive
9,COC(=O)c1c(-c2ccccc2)csc1NC1=NS(=O)(=O)c2ccccc21,"inconclusive: 0.58 µM [activator, full curve, poor fit]"
10,COc1ccccc1N=Nc1ccc(N)c(C)c1,"inconclusive: 0.794 µM [activator, single point]"
11,CC(=O)N/C(=C/c1ccc2c(c1)OCO2)C(=O)O,inactive
12,COCCCN=C1NN=C(c2cc(C)n(-c3ccccc3F)c2C)CS1,active: 14.6 µM
13,Cc1ccn2c(=O)nc(SCC(=O)N3N=C(c4cccs4)CC3c3ccc(F)cc3)nc2c1 (stereo not given),"inconclusive: 35.5 µM [inhibitor, single point]"
14,O=c1[nH]c(Nc2nc3ccccc3o2)nc2c1CCCC2,active: 5.17 µM
15,CCOC(=O)C1=C(CN2CCN(CC)CC2)NC(=O)NC1c1ccc(Cl)cc1 (stereo not given),inactive
16,O=C(c1ccc(CSc2ccccc2)cc1)N1CCCCCC1,"inconclusive: 29.1 µM [inhibitor, single point]"
17,COc1ccc(CCc2cc(OC)c(OC)c(OC)c2)cc1,"inconclusive: 0.0891 µM [inhibitor, full curve, poor fit]"
18,COc1ccc(NC(=O)CCN2C(=O)c3ccccc3C2=O)c(OC)c1,inactive
19,COc1cccc(CN(C)CC(O)COC(c2ccccc2)c2ccccc2C)c1 (stereo not given),"inconclusive: 14.1 µM [inhibitor, partial curve, poor fit]"
20,COc1ccc(C2(c3ccc(OC)cc3)NC(=O)N(CC(=O)Nc3cc(C)on3)C2=O)cc1,"inconclusive: 12.6 µM [inhibitor, partial curve, poor fit]"
21,CCOc1ccc(CNC(=O)C2CCCN(S(=O)(=O)c3ccc4c(c3)CCCC(=O)N4)C2)cc1 (stereo not given),"inconclusive: 12.6 µM [inhibitor, single point]"
22,Cn1c(SCc2ccccc2Cl)nc2c1c(=O)[nH]c(=O)n2C,"inconclusive: 35.5 µM [activator, single point]"

# Some of the entries so far, with tabs.
row	Compound	Potency
4	Cc1ccc(C(=O)NCC(=O)OCc2csc(-c3ccccc3)n2)cc1	inactive
17	Cc1ccc(S(=O)(=O)C(CNC(=O)C(=O)NCCc2ccccc2)c2ccco2)cc1 (stereo not given)	inactive
11	CC(=O)N/C(=C/c1ccc2c(c1)OCO2)C(=O)O	inactive
